Results reported in patent publication US20180194850A1 (GENERAL HOSPITAL, published 2018).
No constants are given. Whether binding was seen depends on the method and setting. Some binding calls cover weakened binding; strength is not graded here. Tags and fused reporters may be left off the sequences shown.

Experiments:
Experiment in all cases: linear peptide ELISA
S03931 = molecular target: T1, S03931
T1 sequence (peptide): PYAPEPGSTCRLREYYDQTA

S04062 = molecular target: T2, S04062
T2 sequence (peptide): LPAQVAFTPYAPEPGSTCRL

S04063 = molecular target: T3, S04063
T3 sequence (peptide): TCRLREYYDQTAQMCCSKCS

S04064 = molecular target: T4, S04064
T4 sequence (peptide): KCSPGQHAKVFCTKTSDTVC

S04065 = molecular target: T5, S04065
T5 sequence (peptide): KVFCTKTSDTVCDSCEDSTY

S04066 = molecular target: T6, S04066
T6 sequence (peptide): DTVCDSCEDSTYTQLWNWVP

S04067 = molecular target: T7, S04067
T7 sequence (peptide): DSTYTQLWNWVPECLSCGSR

S04068 = molecular target: T8, S04068
T8 sequence (peptide): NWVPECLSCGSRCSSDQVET

S04069 = molecular target: T9, S04069
T9 sequence (peptide): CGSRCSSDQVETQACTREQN

S04070 = molecular target: T10, S04070
T10 sequence (peptide): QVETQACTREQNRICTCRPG

S04075 = molecular target: T11, S04075
T11 sequence (peptide): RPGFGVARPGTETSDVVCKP

S04076 = molecular target: T12, S04076
T12 sequence (peptide): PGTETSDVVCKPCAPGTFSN

S04077 = molecular target: T13, S04077
T13 sequence (peptide): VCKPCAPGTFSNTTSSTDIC

S04078 = molecular target: T14, S04078
T14 sequence (peptide): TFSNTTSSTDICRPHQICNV

S04079 = molecular target: T15, S04079
T15 sequence (peptide): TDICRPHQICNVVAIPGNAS

S04080 = molecular target: T16, S04080
T16 sequence (peptide): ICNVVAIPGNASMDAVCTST

S04081 = molecular target: T17, S04081
T17 sequence (peptide): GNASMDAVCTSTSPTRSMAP

[1] = molecular target: epitope containing amino acids 112-139 of SEQ ID NO: 7 within human TNFR2 (human)
[2] = molecular target: epitope containing amino acids 128-155 of SEQ ID NO: 7 within human TNFR2 (human)

binding (S03931): no binding (tested: 0.1 µg/well)
binding (S04062): no binding (tested: 0.1 µg/well)
binding (S04063): no binding (tested: 0.1 µg/well)
binding (S04064): no binding (tested: 0.1 µg/well)
binding (S04065): no binding (tested: 0.1 µg/well)
binding (S04066): no binding (tested: 0.1 µg/well)
binding (S04067): no binding (tested: 0.1 µg/well)
binding (S04068): no binding (tested: 0.1 µg/well)
binding (S04069): no binding (tested: 0.1 µg/well)
binding (S04070): no binding (tested: 0.1 µg/well)
binding (S04075): no binding (tested: 0.1 µg/well)
binding (S04076): no binding (tested: 0.1 µg/well)
binding (S04077): no binding (tested: 0.1 µg/well)
binding (S04078): no binding (tested: 0.1 µg/well)
binding (S04079): no binding (tested: 0.1 µg/well)
binding (S04080): no binding (tested: 0.1 µg/well)
binding (S04081): no binding (tested: 0.1 µg/well)
binding [1]: binds
binding [2]: binds
B1: antagonistic TNFR2 antibody TNFRAB1 (antibody, V domains shown)
VH: EVQLQESGGGLVKPGGSLKLSCAASGFTFSSYVMSWVRQTPEKRLEWVATISSGGSYTYYPDSVKGRFTISRDNAKNTLYLQMSSLRSEDTAMYYCARQRVDGYSSYWYFDVWGAGTAVTVSS
VL: DIVLTQSPAIMSASPGEKVTITCSASSSVYYMYWFQQKPGTSPKLWIYSTSNLASGVPVRFSGSGSGTSYSLTISRMEAEDAATYYCQQRRNYPYTFGGGTKLEIKR
notes: Murine monoclonal IgG; For SPR the antibody was biotinylated and captured on streptavidin; also called TNFR2 antagonist 1
